PubChem BioAssay AID1259327 | Drosophila RNAi Screening Center – 2017

Screen: 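Data from controls in screens of zinc and manganese toxicity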
System: Drosophila S2R+ cells
Reagent: long dsRNA against Drosophila genes
Timing: 5 days (water added on day 4, read one day later)
Treatment: water added as vehicle, no metal, one day before read-out
Measured: 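Total ATP measured by luciferase light, scaled to plate mean, duplicates averaged, then z-scored across plates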
Direction: ATP z-score: higher = more total ATP than typical wells; ATP luminescence: higher = more total ATP
Hit rule: 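Called active when the ATP z-score exceeds 1.5 or falls below -1.5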
Meaning of the calls: active = hit: ATP up or down; inactive = no clear ATP change
The deposit covers about 3,100 reagents; below is a part drawn at random. Over the whole deposit, 378 (12%) are marked active. 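Hits include both directions; z-score sign shows ATP rise or fall; raw luminescence values are not plate-normalised.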 Names joined by + are all predicted targets of the reagent. No sequences are given here. Not stated in the record: the amount of reagent.

| predicted target | DRSC id | ATP z-score, duplicate mean | ATP luminescence, replicate 1 (RLU) | ATP luminescence, replicate 2 (RLU) | call |
| --- | --- | --- | --- | --- | --- |
| Lkr (Leucokinin receptor) | DRSC09754 | 0.536 | 9.97e5 | 9.37e5 | inactive |
| Lkr (Leucokinin receptor) | DRSC39496 | 0.166 | 4.85e5 | 4.44e5 | inactive |
| Vha16-1 (Vacuolar H[+] ATPase 16kD subunit 1) | DRSC05020 | -1.66 | 4.62e5 | 4.76e5 | active |
| ppk28 (pickpocket 28) | DRSC19919 | 1.83 | 8.52e5 | 1.04e6 | active |
| ppk28 (pickpocket 28) | DRSC39604 | -0.0675 | 4.52e5 | 4.70e5 | inactive |
| mgl (Megalin) | DRSC17823 | 0.969 | 7.79e5 | 8.31e5 | inactive |
| mgl (Megalin) | DRSC17859 | -2.17 | 5.03e5 | 6.53e5 | active |
| Dolk (Dolichol kinase) | DRSC07143 | 1.27 | 7.31e5 | 7.37e5 | inactive |
| Dolk (Dolichol kinase) | DRSC39578 | -0.0578 | 4.63e5 | 4.59e5 | inactive |
| Nup153 (Nucleoporin 153kD) | DRSC19904 | -2.59 | 4.55e5 | 4.21e5 | active |
| Octbeta1R (Octopamine beta1 receptor) | DRSC16134 | -0.321 | 2.68e5 | 7.69e5 | inactive |
| Octbeta1R (Octopamine beta1 receptor) | DRSC30030 | -0.246 | 6.12e5 | 5.05e5 | inactive |
| CG16723 | DRSC15138 | 0.463 | 3.21e5 | 8.10e5 | inactive |
| CG16723 | DRSC28144 | -1.2 | 9.39e5 | 1.26e6 | inactive |
| Amt (Ammonium transporter) | DRSC16055 | 0.211 | 3.25e5 | 7.42e5 | inactive |
| Amt (Ammonium transporter) | DRSC27970 | -0.664 | 1.02e6 | 1.18e6 | inactive |
| CG17075 | DRSC00483 | -1.52 | 3.56e5 | 3.91e5 | active |
| CG17075 | DRSC26505 | -1.2 | 9.35e5 | 1.04e6 | inactive |
| CG11703 | DRSC14356 | -0.0891 | 7.23e5 | 6.70e5 | inactive |
| CG11703 | DRSC26507 | -0.204 | 9.22e5 | 1.11e6 | inactive |
| Zdhhc8 (Zinc finger DHHC-type containing 8) | DRSC18122 | -1.03 | 5.36e5 | 7.47e5 | inactive |
| Zdhhc8 (Zinc finger DHHC-type containing 8) | DRSC39517 | -1.88 | 3.78e5 | 2.81e5 | active |
| CG17841 | DRSC17737 | 0.0827 | 6.93e5 | 7.35e5 | inactive |
| CG17841 | DRSC28821 | -0.335 | 8.02e5 | 7.65e5 | inactive |
| CG13793 | DRSC02297 | -0.615 | 7.01e5 | 6.21e5 | inactive |
| CG13793 | DRSC28252 | -1.11 | 6.14e5 | 7.58e5 | inactive |
| syd (sunday driver) | DRSC10963 | -0.475 | 6.51e5 | 7.11e5 | inactive |
| syd (sunday driver) | DRSC24418 | 1.19 | 9.66e5 | 1.03e6 | inactive |
| htl (heartless) | DRSC16968 | 0.0639 | 7.37e5 | 6.88e5 | inactive |
| htl (heartless) | DRSC36668 | -1.82 | 4.14e5 | 4.37e5 | active |
| Unc50 (Unc50 RNA binding protein) | DRSC16561 | 0.253 | 3.71e5 | 6.34e5 | inactive |
| Unc50 (Unc50 RNA binding protein) | DRSC28560 | -0.249 | 8.52e5 | 7.39e5 | inactive |
| CG12783 | DRSC14538 | 0.177 | 2.98e5 | 8.03e5 | inactive |
| Snmp2 (Sensory neuron membrane protein 2) | DRSC10228 | -0.377 | 8.51e5 | 8.42e5 | inactive |
| Snmp2 (Sensory neuron membrane protein 2) | DRSC10843 | 0.296 | 8.01e5 | 7.46e5 | inactive |
| CG15880 | DRSC00474 | -0.616 | 6.72e5 | 6.13e5 | inactive |
| CG15880 | DRSC39795 | -0.124 | 4.90e5 | 4.49e5 | inactive |
| Sr-CII (Scavenger receptor class C, type II) | DRSC07557 | 0.397 | 7.00e5 | 6.11e5 | inactive |
| Sr-CII (Scavenger receptor class C, type II) | DRSC25606 | -0.201 | 8.09e5 | 8.42e5 | inactive |
| CG12773 | DRSC18580 | 0.29 | 7.86e5 | 6.87e5 | inactive |
| CG12773 | DRSC24900 | -0.114 | 8.52e5 | 1.01e6 | inactive |
| Gr64b + Gr64c | DRSC08444 | -0.2 | 9.14e5 | 8.28e5 | inactive |
| Gr64b + Gr64c | DRSC08445 | 0.745 | 1.01e6 | 9.75e5 | inactive |
| Gr64b + Gr64c | DRSC27568 | -0.913 | 8.60e5 | 9.86e5 | inactive |
| CG9304 | DRSC04538 | -0.493 | 6.80e5 | 6.67e5 | inactive |
| CG9304 | DRSC26210 | 0.87 | 9.43e5 | 9.74e5 | inactive |
| ATPsynbetaL (ATP synthase, beta subunit-like) | DRSC10503 | 0.67 | 9.91e5 | 9.76e5 | inactive |
| ATPsynbetaL (ATP synthase, beta subunit-like) | DRSC24354 | -0.0589 | 8.99e5 | 7.86e5 | inactive |
| ppk26 (pickpocket 26) | DRSC10991 | -1.06 | 7.59e5 | 7.54e5 | inactive |
| ppk26 (pickpocket 26) | DRSC25876 | 0.387 | 8.95e5 | 9.02e5 | inactive |
| sdk (sidekick) | DRSC18831 | 0.812 | 7.99e5 | 7.80e5 | inactive |
| sdk (sidekick) | DRSC39522 | -0.216 | 4.90e5 | 3.90e5 | inactive |
| CG4324 | DRSC04462 | -0.978 | 6.67e5 | 5.78e5 | inactive |
| CG4324 | DRSC27530 | -0.524 | 8.60e5 | 1.01e6 | inactive |
| CR32011 + CR32009 + PlexB + 1 more | DRSC21664 | -1.11 | 5.22e5 | 4.48e5 | inactive |
| CR32011 + CR32009 + PlexB + 1 more | DRSC26099 | 1.05 | 1.13e6 | 8.29e5 | inactive |
| ft (fat) | DRSC00819 | -1.16 | 4.50e5 | 3.42e5 | inactive |
| ft (fat) | DRSC37550 | -0.908 | 4.53e5 | 5.53e5 | inactive |
| Sarm (Sterile alpha and Armadillo motif) | DRSC08906 | -0.164 | 6.60e5 | 7.93e5 | inactive |
| Sarm (Sterile alpha and Armadillo motif) | DRSC08907 | 0.766 | 8.99e5 | 7.47e5 | inactive |
| Sarm (Sterile alpha and Armadillo motif) | DRSC10038 | -0.316 | 8.66e5 | 8.43e5 | inactive |
| Sarm (Sterile alpha and Armadillo motif) | DRSC10927 | 0.363 | 9.86e5 | 9.03e5 | inactive |
| Sarm (Sterile alpha and Armadillo motif) | DRSC10929 | -0.258 | 6.99e5 | 7.08e5 | inactive |
| mthl13 (methuselah-like 13) | DRSC05238 | 0.0643 | 7.47e5 | 7.52e5 | inactive |
| Polr3I (RNA polymerase III subunit I) | DRSC19922 | – | 7.31e5 | 7.08e5 | inactive |
| Tsp97E (Tetraspanin 97E) | DRSC16019 | 0.429 | 7.78e5 | 7.23e5 | inactive |
| Tsp97E (Tetraspanin 97E) | DRSC28053 | -0.795 | 1.02e6 | 1.03e6 | inactive |
| TkR86C (Tachykinin-like receptor at 86C) | DRSC16880 | -0.433 | 2.73e5 | 7.33e5 | inactive |
| schlank | DRSC18102 | -1.48 | 4.76e5 | 6.24e5 | inactive |
| Tsp96F (Tetraspanin 96F) | DRSC14147 | -0.281 | 6.93e5 | 6.61e5 | inactive |
| Tsp96F (Tetraspanin 96F) | DRSC39893 | 0.849 | 5.97e5 | 7.23e5 | inactive |
| mthl12 (methuselah-like 12) | DRSC12964 | -0.0202 | 7.01e5 | 7.82e5 | inactive |
| mbo (members only) | DRSC16123 | -0.751 | 6.65e5 | 5.92e5 | inactive |
| mbo (members only) | DRSC39478 | 0.383 | 5.34e5 | 4.26e5 | inactive |
| Oct-TyrR (Octopamine-Tyramine receptor) | DRSC11883 | 0.264 | 9.69e5 | 8.93e5 | inactive |
| Oct-TyrR (Octopamine-Tyramine receptor) | DRSC39865 | 1.7 | 6.95e5 | 7.67e5 | active |
| Rh5 (Rhodopsin 5) | DRSC03412 | 0.363 | 4.40e5 | 5.74e5 | inactive |
| Rh5 (Rhodopsin 5) | DRSC25429 | -0.044 | 7.73e5 | 9.17e5 | inactive |
| Sec22 (Secretory 22) | DRSC29297 | -1.7 | 5.39e5 | 6.91e5 | active |
| Sec22 (Secretory 22) | DRSC39605 | -0.847 | 3.88e5 | 4.28e5 | inactive |
| Tim17b1 | DRSC12179 | 0.00816 | 9.26e5 | 8.69e5 | inactive |
| Tim17b1 | DRSC39766 | -0.13 | 4.63e5 | 4.77e5 | inactive |
| Eglp4 (Entomoglyceroporin 4) | DRSC04438 | -0.0841 | 7.20e5 | 7.15e5 | inactive |
| Eglp4 (Entomoglyceroporin 4) | DRSC25991 | 0.98 | 9.69e5 | 9.75e5 | inactive |
| CG34396 | DRSC04245 | -0.851 | 6.73e5 | 6.00e5 | inactive |
| CG34396 | DRSC04246 | -0.539 | 2.78e5 | 6.95e5 | inactive |
| CG34396 | DRSC29674 | -0.0944 | 8.65e5 | 7.63e5 | inactive |

Hits, of those listed so far:
| predicted target | DRSC id | ATP z-score, duplicate mean | ATP luminescence, replicate 1 (RLU) | ATP luminescence, replicate 2 (RLU) | call |
| --- | --- | --- | --- | --- | --- |
| Vha16-1 (Vacuolar H[+] ATPase 16kD subunit 1) | DRSC05020 | -1.66 | 4.62e5 | 4.76e5 | active |
| ppk28 (pickpocket 28) | DRSC19919 | 1.83 | 8.52e5 | 1.04e6 | active |
| mgl (Megalin) | DRSC17859 | -2.17 | 5.03e5 | 6.53e5 | active |
| Nup153 (Nucleoporin 153kD) | DRSC19904 | -2.59 | 4.55e5 | 4.21e5 | active |
| CG17075 | DRSC00483 | -1.52 | 3.56e5 | 3.91e5 | active |
| Zdhhc8 (Zinc finger DHHC-type containing 8) | DRSC39517 | -1.88 | 3.78e5 | 2.81e5 | active |
| htl (heartless) | DRSC36668 | -1.82 | 4.14e5 | 4.37e5 | active |
| Oct-TyrR (Octopamine-Tyramine receptor) | DRSC39865 | 1.7 | 6.95e5 | 7.67e5 | active |
| Sec22 (Secretory 22) | DRSC29297 | -1.7 | 5.39e5 | 6.91e5 | active |
